This note sets out measurements from publication PMC11157767 (Molecular Cancer, 2024).

One data set has as its system TFG-MET allograft tumors. As to the kind of experiment: RNA-sequencing, differential expression and GSEA of TFG-MET allograft tumors. The format is in vivo, mouse. On the procedure:
Error bars display standard error of mean, statistical significance was determined using t-test analysis. (****;p<0.0001, ***;p<0.001, **;p<0.01, *;p<0.05). […] Each dot represents an individual replicate. Error bars display standard error of the mean.
Each dot represents one gene.

The next data set has as its system TRIM24-MET-r cells. As to the kind of experiment: RNA-sequencing, differential expression and GSEA of TRIM24-MET-r cells, 4h in vitro treatment at EC90. Format: cell-based, human. The settings on record: GSEA CRI vs DMSO.
Setting [1] is: C5 GO BP, GOBP_NCRNA_METABOLIC_PROCESS.
Setting [2] is: C5 GO BP, GOBP_NCRNA_PROCESSING
Where [3] appears, read: C5 GO BP, GOBP_RIBONUCLEOPROTEIN_COMPLEX_BIOGENESIS
Where [4] appears, read: C5 GO BP, GOBP_RIBOSOME_BIOGENESIS
Setting [5] is: C5 GO BP, GOBP_RRNA_METABOLIC_PROCESS.
Where [6] appears, read: C5 GO CC, GOCC_ORGANELLE_INNER_MEMBRANE
Where [7] appears, read: C5 GO CC, GOCC_RIBONUCLEOPROTEIN_COMPLEX.
[8] abbreviates: C5 GO CC, GOCC_SMALL_SUBUNIT_PROCESSOME

Some results come without the dose or concentration used.

Turning to `CNC(=O)c1ccc(-c2cnc3ncc(Cc4ccc5ncccc5c4)n3n2)cc1F` [Capmatinib], in the data set with TFG-MET allograft tumors (CAP v Veh, GSEA C5 GO MF, padj 0.961634), the “NES, GOMF_ACYL_COA_BINDING” value was -0.67. Also, the “NES, GOMF_EXTRACELLULAR_LIGAND_GATED_ION_CHANNEL_ACTIVITY” value with TFG-MET allograft tumors (CAP v Veh, GSEA C5 GO MF, padj 0.963266) came out at 0.7829. The “NES, GOMF_LIGAND_GATED_ION_CHANNEL_ACTIVITY” value with TFG-MET allograft tumors (CAP v Veh, GSEA C5 GO MF, padj 0.981818) turned out to be 0.7437. Further, the “ES, GOMF_AMIDE_BINDING” value with TFG-MET allograft tumors (CAP v Veh, GSEA C5 GO MF, padj 0.988063) is listed as 0.1423. For the same molecule, the “ES, GOMF_STRUCTURAL_CONSTITUENT_OF_RIBOSOME” value with TFG-MET allograft tumors (CAP v Veh, GSEA C5 GO MF, padj 0.992017) was -0.1491. In addition, in the data set on TFG-MET allograft tumors (GSEA CAP.v.Veh, C5 GO CC), the “ES GOCC_ENDOSOME” value was 0.2317, the “ES GOCC_INTRINSIC_COMPONENT_OF_POSTSYNAPTIC_MEMBRANE” value is on record as -0.1574, the “NES GOCC_NEURON_TO_NEURON_SYNAPSE” value turned out to be 0.7187 and the “NES GOCC_SOMATODENDRITIC_COMPARTMENT” value is given as -0.6562.
On to `C[C@@H](Oc1cc(-c2cnn(C3CCNCC3)c2)cnc1N)c1c(Cl)ccc(F)c1Cl` [Crizotinib], for which the ES is -0.5781 with TRIM24-MET-r cells (setting [1]); -0.6028 in the data set with TRIM24-MET-r cells (setting [2]); -0.5835 with TRIM24-MET-r cells (setting [3]); -0.6641 in the data set with TRIM24-MET-r cells (setting [4]); -0.6637 in the data set with TRIM24-MET-r cells (setting [5]); -0.4309 in the data set on TRIM24-MET-r cells (C5 GO CC, GOCC_NUCLEOLUS). Besides, the ES in the data set on TRIM24-MET-r cells (setting [6]) is -0.4185; with TRIM24-MET-r cells (C5 GO CC, GOCC_PRERIBOSOME), -0.7971; in the data set with TRIM24-MET-r cells (setting [7]), -0.4388; with TRIM24-MET-r cells (setting [8]), -0.8445. The NES in the data set with TRIM24-MET-r cells (setting [1]) is on record as -2.393; with TRIM24-MET-r cells (setting [2]) it was -2.457; with TRIM24-MET-r cells (setting [3]), -2.418; with TRIM24-MET-r cells (setting [4]), -2.6548; in the data set on TRIM24-MET-r cells (setting [5]) it was -2.5859; in the data set on TRIM24-MET-r cells (C5 GO CC, GOCC_NUCLEOLUS), -1.875. The NES in the data set on TRIM24-MET-r cells (setting [6]) is on record as -1.742; in the data set on TRIM24-MET-r cells (C5 GO CC, GOCC_PRERIBOSOME), -2.659; in the data set with TRIM24-MET-r cells (setting [7]), -1.87; with TRIM24-MET-r cells (setting [8]) it was -2.4781.
